PubChem BioAssay AID602196, INSERM | 2012

Assay: 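Modifiers of cisplatin sensitivity in A549 cells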
Cell system: human A549 lung cancer cells
Reagents: siRNA pair against human genes
Timing: 48 h transfection before cisplatin; time from cisplatin to read-out not stated
Treatment: cisplatin at a dose killing half of control-siRNA cells; exact dose and duration not given
Read-out: 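Cisplatin cell death as a shift from the 50% death seen with control siRNA; siRNAs toxic or growth-blocking alone scored 0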
Reading the numbers: two-siRNA summed score (-2 to +2): higher = both siRNAs protect from cisplatin killing; -2 means both sensitise; mean protection from cisplatin (shift in death): higher = protection from cisplatin killing
Call rule: 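siRNAs harmful alone (LDH or WST-1) get 0; others get +1 for less and -1 for more cisplatin killing; genes are active when the two siRNAs give the same sign, summing to ±2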
Calls: active = both siRNAs shift cisplatin killing the same way; inactive = no consistent shift, or siRNA harmful alone
The whole screen tested about 23,000 reagents; shown is a random part of them. Of all reagents, 455 (2%) are marked active. 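Active includes both protection and sensitisation; some change values fall well beyond the stated -50 to +50 range.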 Not all columns of the deposit are shown. Not stated in the record: the amount of reagent.

How did the screen score LOC126661?
two-siRNA summed score (-2 to +2): 0; mean protection from cisplatin (shift in death) (%): -3.7; Call: inactive

What is on record for LOC389936?
two-siRNA summed score (-2 to +2): 1; mean protection from cisplatin (shift in death) (%): 19.8; Call: inactive

What is on record for KASH5?
two-siRNA summed score (-2 to +2): 0; mean protection from cisplatin (shift in death) (%): -2.5; Call: inactive

For RAPSN, what was measured?
two-siRNA summed score (-2 to +2): 0; mean protection from cisplatin (shift in death) (%): -0.1; Call: inactive

How did the screen score YARS2?
two-siRNA summed score (-2 to +2): 0; mean protection from cisplatin (shift in death) (%): -0.1; Call: inactive

With CYFIP1, what does the deposit list?
two-siRNA summed score (-2 to +2): 0; mean protection from cisplatin (shift in death) (%): 11.1; Call: inactive

What did the screen give for TROAP?
two-siRNA summed score (-2 to +2): 0; mean protection from cisplatin (shift in death) (%): 3.5; Call: inactive

For LACTB, what was measured?
two-siRNA summed score (-2 to +2): 0; mean protection from cisplatin (shift in death) (%): 7.3; Call: inactive

With C12orf57, what does the deposit list?
two-siRNA summed score (-2 to +2): 0; mean protection from cisplatin (shift in death) (%): 1.9; Call: inactive

What is on record for LEMD1?
two-siRNA summed score (-2 to +2): 0; mean protection from cisplatin (shift in death) (%): -8.6; Call: inactive

How did the screen score CCL27?
two-siRNA summed score (-2 to +2): 0; mean protection from cisplatin (shift in death) (%): -14; Call: inactive

What did the screen give for ACAA2?
two-siRNA summed score (-2 to +2): 0; mean protection from cisplatin (shift in death) (%): 0.3; Call: inactive

What is on record for SIAH2?
two-siRNA summed score (-2 to +2): 0; mean protection from cisplatin (shift in death) (%): -3.4; Call: inactive

How did the screen score IGFBP6?
two-siRNA summed score (-2 to +2): 0; mean protection from cisplatin (shift in death) (%): -2.8; Call: inactive

With COQ4, what was measured?
two-siRNA summed score (-2 to +2): 0; mean protection from cisplatin (shift in death) (%): -1.9; Call: inactive

Which result is listed for LOC391282?
two-siRNA summed score (-2 to +2): 0; mean protection from cisplatin (shift in death) (%): -6.3; Call: inactive

With PCDHA2, how do the results read?
two-siRNA summed score (-2 to +2): 0; mean protection from cisplatin (shift in death) (%): -0.7; Call: inactive

For MON1B, what does the deposit list?
two-siRNA summed score (-2 to +2): 0; mean protection from cisplatin (shift in death) (%): 3.9; Call: inactive

How did the screen score UPB1?
two-siRNA summed score (-2 to +2): 0; mean protection from cisplatin (shift in death) (%): -3; Call: inactive

How did the screen score LOC393062?
two-siRNA summed score (-2 to +2): 0; mean protection from cisplatin (shift in death) (%): 11.6; Call: inactive

With ZNF280C, what does the deposit list?
two-siRNA summed score (-2 to +2): 0; mean protection from cisplatin (shift in death) (%): 2.8; Call: inactive

How did the screen score GFUS?
two-siRNA summed score (-2 to +2): 0; mean protection from cisplatin (shift in death) (%): -2.5; Call: inactive

With AGER, what was measured?
two-siRNA summed score (-2 to +2): 1; mean protection from cisplatin (shift in death) (%): 12.4; Call: inactive

With LOC254027, what does the deposit list?
two-siRNA summed score (-2 to +2): 0; mean protection from cisplatin (shift in death) (%): 12.3; Call: inactive

Which result is listed for LOC441126?
two-siRNA summed score (-2 to +2): 0; mean protection from cisplatin (shift in death) (%): 10; Call: inactive

With BCAN, what was measured?
two-siRNA summed score (-2 to +2): 1; mean protection from cisplatin (shift in death) (%): 25.3; Call: inactive

With EPS15, what was measured?
two-siRNA summed score (-2 to +2): 0; mean protection from cisplatin (shift in death) (%): 1.8; Call: inactive

Which result is listed for PLPPR4?
two-siRNA summed score (-2 to +2): 2; mean protection from cisplatin (shift in death) (%): 26; Call: active

With RAET1G, what does the deposit list?
two-siRNA summed score (-2 to +2): 0; mean protection from cisplatin (shift in death) (%): -10.6; Call: inactive

For SLC18A2, what was measured?
two-siRNA summed score (-2 to +2): 1; mean protection from cisplatin (shift in death) (%): 4.2; Call: inactive

How did the screen score EFCAB6?
two-siRNA summed score (-2 to +2): -1; mean protection from cisplatin (shift in death) (%): -2.8; Call: inactive

Called active, of those listed so far:
PLPPR4 — two-siRNA summed score (-2 to +2) = 2; mean protection from cisplatin (shift in death) (%) = 26; Call = active
